Protein sequences, listed by entry. Tags and fused reporters are not part of them.
UniProt P51114: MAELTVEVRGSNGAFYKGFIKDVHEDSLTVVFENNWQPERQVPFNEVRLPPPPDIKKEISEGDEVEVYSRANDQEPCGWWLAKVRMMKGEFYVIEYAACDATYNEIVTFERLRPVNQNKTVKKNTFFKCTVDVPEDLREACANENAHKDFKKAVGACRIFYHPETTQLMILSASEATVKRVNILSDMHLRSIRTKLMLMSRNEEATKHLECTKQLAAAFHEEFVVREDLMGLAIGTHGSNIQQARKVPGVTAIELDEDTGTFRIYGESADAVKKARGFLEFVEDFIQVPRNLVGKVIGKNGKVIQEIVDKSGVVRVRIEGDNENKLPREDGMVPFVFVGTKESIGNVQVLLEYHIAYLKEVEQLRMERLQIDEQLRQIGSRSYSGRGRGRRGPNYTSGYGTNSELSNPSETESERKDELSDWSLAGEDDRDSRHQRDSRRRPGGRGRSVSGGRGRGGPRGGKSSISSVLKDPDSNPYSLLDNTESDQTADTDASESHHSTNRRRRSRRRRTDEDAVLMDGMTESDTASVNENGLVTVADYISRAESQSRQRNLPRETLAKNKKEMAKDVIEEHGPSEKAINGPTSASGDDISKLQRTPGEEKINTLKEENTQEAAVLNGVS
UniProt Q9NR30: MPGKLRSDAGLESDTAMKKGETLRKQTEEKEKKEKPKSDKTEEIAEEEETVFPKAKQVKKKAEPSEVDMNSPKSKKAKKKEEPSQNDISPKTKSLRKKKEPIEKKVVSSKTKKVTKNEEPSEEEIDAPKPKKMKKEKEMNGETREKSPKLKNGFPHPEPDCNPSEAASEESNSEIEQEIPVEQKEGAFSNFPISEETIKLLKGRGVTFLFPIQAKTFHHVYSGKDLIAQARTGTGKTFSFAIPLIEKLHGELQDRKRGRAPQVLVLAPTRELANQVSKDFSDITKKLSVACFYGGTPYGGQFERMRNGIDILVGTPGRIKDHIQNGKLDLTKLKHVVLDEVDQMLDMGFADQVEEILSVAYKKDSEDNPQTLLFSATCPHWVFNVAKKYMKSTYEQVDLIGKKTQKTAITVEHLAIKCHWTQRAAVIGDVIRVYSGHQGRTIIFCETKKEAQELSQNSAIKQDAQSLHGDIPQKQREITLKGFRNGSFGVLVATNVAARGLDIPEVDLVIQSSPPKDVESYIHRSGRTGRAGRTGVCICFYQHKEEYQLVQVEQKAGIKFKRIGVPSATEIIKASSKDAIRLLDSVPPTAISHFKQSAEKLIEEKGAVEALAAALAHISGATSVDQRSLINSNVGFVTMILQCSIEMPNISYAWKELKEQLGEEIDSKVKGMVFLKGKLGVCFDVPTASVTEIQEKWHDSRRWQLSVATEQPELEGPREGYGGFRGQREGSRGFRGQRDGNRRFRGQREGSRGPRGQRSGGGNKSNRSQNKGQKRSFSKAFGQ
UniProt Q14978: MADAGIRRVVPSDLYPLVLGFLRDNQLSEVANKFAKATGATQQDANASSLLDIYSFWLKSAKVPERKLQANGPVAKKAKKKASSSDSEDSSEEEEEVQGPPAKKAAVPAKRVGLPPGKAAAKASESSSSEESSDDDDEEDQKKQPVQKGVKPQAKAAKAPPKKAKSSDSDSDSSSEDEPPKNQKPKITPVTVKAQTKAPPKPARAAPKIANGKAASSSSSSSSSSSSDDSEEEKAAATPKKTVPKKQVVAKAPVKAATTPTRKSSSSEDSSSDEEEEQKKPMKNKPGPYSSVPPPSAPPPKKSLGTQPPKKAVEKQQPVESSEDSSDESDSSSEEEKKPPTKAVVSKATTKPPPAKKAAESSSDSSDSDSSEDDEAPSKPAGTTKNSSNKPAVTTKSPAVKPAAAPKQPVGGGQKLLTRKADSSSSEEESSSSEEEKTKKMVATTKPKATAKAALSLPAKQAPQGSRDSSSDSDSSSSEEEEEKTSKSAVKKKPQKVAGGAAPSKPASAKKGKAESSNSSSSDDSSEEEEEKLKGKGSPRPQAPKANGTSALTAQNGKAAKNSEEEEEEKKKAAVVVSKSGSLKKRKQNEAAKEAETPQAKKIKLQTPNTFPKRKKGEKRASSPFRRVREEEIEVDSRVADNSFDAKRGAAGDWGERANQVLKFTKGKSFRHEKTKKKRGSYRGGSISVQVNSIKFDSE

According to article doi:10.1101/2021.12.07.471635:

Molecular target: Fragile-X-mental retardation related protein 1 (FXR1) (human (endogenous in THP1)) (UniProt P51114)
Test: affinity purification with mass spectrometry

Substance	binding
DDX21 (from UniProt Q9NR30 1-783)	binds
NOLC1 (from UniProt Q14978 1-699)	binds

Results are given in words; binding and its absence hold for the method and conditions named. In cells and extracts the contact can be indirect. These calls come from enrichment with a bait or labelling near it, and not all partners need be listed.
